Test results: paper PMC6072111

Molecular target: T1, MUT-16::mCherry::2xHA (full-length) (C. elegans) (UniProt O62011)
T1 sequence: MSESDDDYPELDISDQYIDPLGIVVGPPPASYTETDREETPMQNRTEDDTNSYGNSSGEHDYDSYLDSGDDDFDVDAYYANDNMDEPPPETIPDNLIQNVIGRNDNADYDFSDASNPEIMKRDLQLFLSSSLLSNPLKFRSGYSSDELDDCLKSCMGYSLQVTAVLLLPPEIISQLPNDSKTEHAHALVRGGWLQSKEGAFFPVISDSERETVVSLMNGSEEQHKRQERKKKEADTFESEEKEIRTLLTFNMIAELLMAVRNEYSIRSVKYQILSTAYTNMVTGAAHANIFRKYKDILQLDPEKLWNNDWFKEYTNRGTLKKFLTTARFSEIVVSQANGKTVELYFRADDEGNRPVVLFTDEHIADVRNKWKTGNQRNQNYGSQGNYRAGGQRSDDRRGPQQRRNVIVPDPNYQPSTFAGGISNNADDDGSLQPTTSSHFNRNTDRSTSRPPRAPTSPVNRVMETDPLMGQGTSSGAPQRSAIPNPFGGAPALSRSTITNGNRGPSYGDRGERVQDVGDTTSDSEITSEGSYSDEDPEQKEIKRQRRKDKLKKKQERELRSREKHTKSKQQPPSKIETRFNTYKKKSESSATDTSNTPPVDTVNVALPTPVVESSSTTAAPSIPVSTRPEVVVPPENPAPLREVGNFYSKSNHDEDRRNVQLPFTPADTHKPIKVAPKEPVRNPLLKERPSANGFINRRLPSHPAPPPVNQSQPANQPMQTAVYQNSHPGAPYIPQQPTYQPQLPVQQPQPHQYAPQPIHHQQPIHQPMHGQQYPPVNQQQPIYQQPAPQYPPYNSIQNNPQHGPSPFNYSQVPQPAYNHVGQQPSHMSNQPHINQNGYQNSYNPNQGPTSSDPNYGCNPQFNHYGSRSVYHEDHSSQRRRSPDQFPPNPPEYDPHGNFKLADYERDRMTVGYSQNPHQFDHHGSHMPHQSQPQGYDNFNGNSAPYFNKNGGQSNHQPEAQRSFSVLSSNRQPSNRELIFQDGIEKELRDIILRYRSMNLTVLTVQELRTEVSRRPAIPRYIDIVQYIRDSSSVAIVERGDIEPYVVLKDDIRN
Assay: co-IP; anti-HA affinity matrix on lysate of ~40,000 synchronized adult C. elegans carrying MUT-16::mCherry::2xHA (full-length or deletion) and a GFP/3xFLAG-tagged partner; western blot with anti-HA and anti-FLAG

| Substance | binding |
| --- | --- |
| GFP::3xFLAG::RRF-1 (C. elegans) (enzyme) | binds |
| MUT-2::GFP::3xFLAG (C. elegans) | binds |

These are yes or no findings as the source states them, for the method shown. In cells and extracts the contact can be indirect. A result given as binding can be weak or reduced; the word gives no strength.
